Reference: publication PMC10392025
These are yes or no findings as the source states them, for the method shown. Binding seen in cells or lysates may run through a third protein. Some entries that bind do so weakly or less than the wild type. For some assays here: Where a sequence is shown, tags or fusion partners need not be part of it.

The chains behind the UniProt entries cited, without tags or fusion partners.
UniProt Q92769: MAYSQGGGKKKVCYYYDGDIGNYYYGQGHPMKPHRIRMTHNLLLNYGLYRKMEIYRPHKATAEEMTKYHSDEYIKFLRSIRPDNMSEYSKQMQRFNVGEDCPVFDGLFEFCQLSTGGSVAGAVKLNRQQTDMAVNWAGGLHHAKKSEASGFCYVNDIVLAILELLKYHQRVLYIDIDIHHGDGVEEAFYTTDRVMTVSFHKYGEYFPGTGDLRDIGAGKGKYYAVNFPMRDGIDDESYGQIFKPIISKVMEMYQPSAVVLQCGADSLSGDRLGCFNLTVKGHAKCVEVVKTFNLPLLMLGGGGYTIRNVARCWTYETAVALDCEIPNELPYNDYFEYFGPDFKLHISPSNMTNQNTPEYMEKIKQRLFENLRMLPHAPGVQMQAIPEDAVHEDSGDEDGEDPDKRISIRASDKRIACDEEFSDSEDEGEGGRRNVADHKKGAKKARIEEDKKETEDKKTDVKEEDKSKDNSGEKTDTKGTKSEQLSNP

Experiments:
FLAG-tagged XPO7 protein = target: T1, FLAG-tagged XPO7 protein (UniProt Q9UIA9); assay: co-IP; exogenous Co-IP of HDAC2 and FLAG-XPO7 in HEK293T cells
T1 sequence: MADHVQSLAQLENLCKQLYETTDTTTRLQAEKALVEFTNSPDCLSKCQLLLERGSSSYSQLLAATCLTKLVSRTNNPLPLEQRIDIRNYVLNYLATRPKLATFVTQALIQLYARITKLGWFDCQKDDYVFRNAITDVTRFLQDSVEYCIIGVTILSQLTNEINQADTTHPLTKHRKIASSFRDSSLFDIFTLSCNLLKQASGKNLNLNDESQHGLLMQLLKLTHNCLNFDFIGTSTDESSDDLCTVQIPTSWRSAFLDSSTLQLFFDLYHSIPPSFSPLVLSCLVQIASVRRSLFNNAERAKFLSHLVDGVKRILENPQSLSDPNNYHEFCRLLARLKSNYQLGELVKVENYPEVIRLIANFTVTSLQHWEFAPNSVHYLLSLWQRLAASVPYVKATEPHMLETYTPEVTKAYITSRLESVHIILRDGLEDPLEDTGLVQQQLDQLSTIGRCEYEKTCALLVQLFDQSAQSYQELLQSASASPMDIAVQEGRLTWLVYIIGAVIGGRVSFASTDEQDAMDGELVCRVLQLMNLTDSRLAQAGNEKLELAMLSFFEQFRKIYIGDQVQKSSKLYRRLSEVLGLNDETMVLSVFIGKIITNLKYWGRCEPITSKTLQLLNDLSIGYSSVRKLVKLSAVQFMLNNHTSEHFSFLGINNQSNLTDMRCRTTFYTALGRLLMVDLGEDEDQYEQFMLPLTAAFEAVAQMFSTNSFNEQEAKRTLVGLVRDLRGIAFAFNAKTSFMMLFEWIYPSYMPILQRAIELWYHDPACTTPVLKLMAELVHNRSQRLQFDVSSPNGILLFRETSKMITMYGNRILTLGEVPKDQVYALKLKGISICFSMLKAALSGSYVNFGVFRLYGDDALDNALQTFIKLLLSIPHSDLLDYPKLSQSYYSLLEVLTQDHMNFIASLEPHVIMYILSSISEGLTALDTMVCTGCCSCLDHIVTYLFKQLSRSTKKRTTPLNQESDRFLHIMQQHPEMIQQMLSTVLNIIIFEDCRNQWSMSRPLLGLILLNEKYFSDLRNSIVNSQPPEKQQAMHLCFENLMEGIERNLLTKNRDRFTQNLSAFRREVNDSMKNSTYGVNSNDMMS

[1] = target: T2, XPO7 (Exportin 7), endogenous in hMSCs (human (endogenous in hMSCs)) (UniProt Q9UIA9); assay: co-IP; endogenous Co-IP of HDAC2 and XPO7 in hMSCs
T2 sequence: T1 sequence

Row | Substance | binding (FLAG-tagged XPO7 protein) | binding [1]
1 | HDAC2 (histone deacetylase 2) in HEK293T cells (from UniProt Q92769 1-488) | binds | 
2 | HDAC2 (histone deacetylase 2), endogenous in hMSCs (from UniProt Q92769 1-488) |  | binds
